No constants are given. Whether binding was seen depends on the method and setting. In cells and extracts the contact can be indirect. Some results given as binding are weak or reduced against the parent protein; the word gives no strength.

Sequences of proteins named here, by UniProt entry; tags and fusion partners are left off. Residues count along the entry.
UniProt O14497: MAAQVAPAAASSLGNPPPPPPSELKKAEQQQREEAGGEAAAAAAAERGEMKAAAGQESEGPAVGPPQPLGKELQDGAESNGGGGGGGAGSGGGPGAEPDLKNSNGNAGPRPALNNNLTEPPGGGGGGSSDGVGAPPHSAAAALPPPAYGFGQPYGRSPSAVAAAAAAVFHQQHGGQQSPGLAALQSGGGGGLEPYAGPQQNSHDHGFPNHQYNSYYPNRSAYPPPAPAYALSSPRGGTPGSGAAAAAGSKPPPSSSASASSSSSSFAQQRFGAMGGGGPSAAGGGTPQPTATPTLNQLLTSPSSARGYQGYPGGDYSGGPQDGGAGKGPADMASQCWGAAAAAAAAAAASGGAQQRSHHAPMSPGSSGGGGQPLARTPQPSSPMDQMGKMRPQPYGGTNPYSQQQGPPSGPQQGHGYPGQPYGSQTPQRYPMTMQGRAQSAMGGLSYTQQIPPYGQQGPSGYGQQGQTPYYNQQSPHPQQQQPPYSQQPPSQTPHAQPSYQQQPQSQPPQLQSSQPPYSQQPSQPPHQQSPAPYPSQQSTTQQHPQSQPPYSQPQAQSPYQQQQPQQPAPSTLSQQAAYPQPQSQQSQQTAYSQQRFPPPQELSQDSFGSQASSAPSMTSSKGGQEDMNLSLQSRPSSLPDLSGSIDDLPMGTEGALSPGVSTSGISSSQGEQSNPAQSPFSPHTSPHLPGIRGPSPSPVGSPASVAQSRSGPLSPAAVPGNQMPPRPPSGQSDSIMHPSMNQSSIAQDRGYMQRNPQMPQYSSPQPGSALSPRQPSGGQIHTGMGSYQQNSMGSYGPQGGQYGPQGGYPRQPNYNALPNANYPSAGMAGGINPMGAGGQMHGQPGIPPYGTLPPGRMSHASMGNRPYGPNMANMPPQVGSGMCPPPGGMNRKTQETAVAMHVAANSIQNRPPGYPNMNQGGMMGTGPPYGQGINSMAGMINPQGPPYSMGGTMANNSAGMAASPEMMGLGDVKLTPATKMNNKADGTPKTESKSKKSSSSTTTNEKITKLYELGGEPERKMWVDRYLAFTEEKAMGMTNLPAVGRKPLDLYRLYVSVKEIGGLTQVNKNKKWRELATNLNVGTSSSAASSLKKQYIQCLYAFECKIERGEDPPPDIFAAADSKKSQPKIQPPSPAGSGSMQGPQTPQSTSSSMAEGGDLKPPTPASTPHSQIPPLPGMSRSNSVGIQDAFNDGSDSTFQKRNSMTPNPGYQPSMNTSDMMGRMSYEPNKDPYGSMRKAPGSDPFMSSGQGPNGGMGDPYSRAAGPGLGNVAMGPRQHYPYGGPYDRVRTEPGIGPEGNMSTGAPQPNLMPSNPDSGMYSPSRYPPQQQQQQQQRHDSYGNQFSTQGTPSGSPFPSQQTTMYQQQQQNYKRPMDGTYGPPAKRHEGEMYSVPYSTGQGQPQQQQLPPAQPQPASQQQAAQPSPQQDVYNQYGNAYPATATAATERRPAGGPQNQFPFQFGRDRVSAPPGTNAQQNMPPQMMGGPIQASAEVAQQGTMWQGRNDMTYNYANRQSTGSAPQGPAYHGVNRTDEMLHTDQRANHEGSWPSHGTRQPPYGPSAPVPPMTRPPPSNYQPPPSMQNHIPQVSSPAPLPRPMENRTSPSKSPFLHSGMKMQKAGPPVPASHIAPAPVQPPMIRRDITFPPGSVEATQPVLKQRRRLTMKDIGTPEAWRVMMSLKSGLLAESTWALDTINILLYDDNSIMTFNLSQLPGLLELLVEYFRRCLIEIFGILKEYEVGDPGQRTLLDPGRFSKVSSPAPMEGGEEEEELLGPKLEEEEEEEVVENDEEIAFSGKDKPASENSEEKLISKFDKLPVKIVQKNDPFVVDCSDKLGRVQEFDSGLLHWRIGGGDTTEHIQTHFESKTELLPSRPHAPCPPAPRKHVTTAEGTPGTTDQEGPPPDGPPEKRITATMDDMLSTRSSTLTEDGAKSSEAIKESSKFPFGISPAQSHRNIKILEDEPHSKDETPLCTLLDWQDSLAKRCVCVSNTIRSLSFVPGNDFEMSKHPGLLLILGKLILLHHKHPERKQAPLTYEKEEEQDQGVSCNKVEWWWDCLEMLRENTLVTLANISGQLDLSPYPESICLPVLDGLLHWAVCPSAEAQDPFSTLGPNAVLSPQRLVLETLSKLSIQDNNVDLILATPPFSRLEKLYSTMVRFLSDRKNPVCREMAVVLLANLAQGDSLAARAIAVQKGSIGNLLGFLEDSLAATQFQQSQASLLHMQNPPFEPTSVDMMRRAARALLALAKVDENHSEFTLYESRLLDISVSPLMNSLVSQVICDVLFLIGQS
UniProt P06401, residues 165-933: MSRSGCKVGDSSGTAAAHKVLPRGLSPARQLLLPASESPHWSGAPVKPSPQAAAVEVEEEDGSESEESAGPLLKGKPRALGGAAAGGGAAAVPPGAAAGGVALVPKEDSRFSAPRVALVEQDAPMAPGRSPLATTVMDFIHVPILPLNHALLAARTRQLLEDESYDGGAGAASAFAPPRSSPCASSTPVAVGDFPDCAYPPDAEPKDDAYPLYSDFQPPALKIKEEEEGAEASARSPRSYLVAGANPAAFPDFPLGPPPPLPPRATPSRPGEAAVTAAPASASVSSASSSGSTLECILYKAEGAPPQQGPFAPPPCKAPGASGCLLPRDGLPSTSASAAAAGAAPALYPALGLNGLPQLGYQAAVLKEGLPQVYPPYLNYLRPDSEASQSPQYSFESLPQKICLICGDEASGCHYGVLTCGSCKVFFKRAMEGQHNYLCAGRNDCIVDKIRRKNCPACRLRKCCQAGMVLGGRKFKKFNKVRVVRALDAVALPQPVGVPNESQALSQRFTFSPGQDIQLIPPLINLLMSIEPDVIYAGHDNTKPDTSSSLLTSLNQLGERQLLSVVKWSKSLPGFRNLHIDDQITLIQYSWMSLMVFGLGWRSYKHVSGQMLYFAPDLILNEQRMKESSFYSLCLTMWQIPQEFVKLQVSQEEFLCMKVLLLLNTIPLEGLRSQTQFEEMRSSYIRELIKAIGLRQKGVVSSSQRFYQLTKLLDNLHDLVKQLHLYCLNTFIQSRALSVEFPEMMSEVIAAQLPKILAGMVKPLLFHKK

Among the data in paper PMC4574948 are binding values, retold here.

For this test, the target named is AT-rich interactive domain 1A protein (ARID1A) (human (endogenous in Ishikawa)) (UniProt O14497). In words: co-IP; Ishikawa cells transfected with human PR-A or PR-B; lysis buffer 150 mM NaCl, 0.125% Nonidet P-40, 2.5 mM EDTA, 10 mM Tris-HCl pH 7.4; immunoprecipitated with ARID1A antibodies (Abnova) and protein A-agarose overnight at 4°C; western blot with anti-PGR antibody. On the technique in general: Immunoblotting shows a protein as a band on a membrane.

Turning to “human progesterone receptor isoform A (PR-A) (from UniProt P06401-2 1-769)”, the binding result was “binds”.
